Results of single-concentration screens

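Assay of Toxoplasma gondii numbers, read through their beta-galactosidase reporter with a colour substrate. Compounds at 50 µM. The record gives no direction; the compounds picked for IC50 retests had high values, so higher reads as fewer parasites. Of about 18,000 compounds tested this way, about 170 (0.94%) reached 50% or more in at least one test.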

Each number is a percent effect as filed.
The record does not define 0% and 100%; most values in the screen are far below 50% and negative numbers occur (in some assays of this library far below -100).
The compounds are a random part of those screened.

| # | Compound | effect |
|---|---|---|
| 1 | `OCc1ccncc1NCc1ccccc1` | -1.232 |
| 2 | `OCCOCCN1CCN(c2ccccc2F)CC1` | 5.779 |
| 3 | `CCC(C(=O)NCc1cn2ccsc2n1)n1cccn1` (centres undefined) | 19.32 |
| 4 | `OC1(c2ccccc2Cl)CCNCC1` | 6.16 |
| 5 | `Nc1cnccc1N1CCCCC1` | 0.1352 |
| 6 | `CCOC(=O)NCCC(=O)Nc1cccnc1` | -21.31 |
| 7 | `Cc1ccc(N2CCCC(N)C2)cc1` (centres undefined) | 6.192 |
| 8 | `OC1(CNCCCn2cc(Cl)cn2)CCCNC1` (centres undefined) | -11.83 |
| 9 | `CN(C)CCCOc1cnccc1CN` | -0.5541 |
| 10 | `COCC(C)(O)CNC(=O)c1c(F)cccc1Br` (centres undefined) | -1.56 |
| 11 | `Cc1cccc2nc(CN(C)CC(O)CO)[nH]c12` (centres undefined) | -2.064 |
| 12 | `CCc1ccc(CN2CC(N3CCOCC3)C2)o1` | -6.19 |
| 13 | `CCNC(=O)CCN1CCC(CNc2ccccn2)C1` (centres undefined) | 5.103 |
| 14 | `Cc1ccc(-n2nnnc2NC2CC2)cc1` | 1.322 |
| 15 | `CCC(C)c1cc(C(=O)NC(C)(CO)CO)on1` (centres undefined) | -6.312 |
| 16 | `C1CCN(CCOC2CCNC2)C1` (centres undefined) | -8.926 |
| 17 | `NC[C@@H]1OC[C@@H]2COCC[C@@H]21` | -24.64 |
| 18 | `CCOC(=O)c1nnn(-c2ccc(F)cc2)c1C` | 2.557 |
| 19 | `CC(=O)NC(Cc1ccc(O)cc1)C(C)=O` (centres undefined) | -0.1272 |
| 20 | `Cc1ccc(S(=O)(=O)N[C@@H]2CCOC[C@H]2O)s1` | 3.288 |
| 21 | `CCC1CCCCCN1C(=O)CCCN` (centres undefined) | 7.424 |
| 22 | `CCCNc1nc2c(c(=O)n(C)c(=O)n2C)n1CC` | -0.8902 |
| 23 | `COc1ccccc1NC(=O)CN1CCCC(OC)C1` (centres undefined) | 0.9833 |
| 24 | `CC(C)S(=O)(=O)N(C)C(=O)c1cc(Br)c2c(c1)OCO2` | 10.61 |
| 25 | `CNC1CCN(CCn2cccn2)CC1` | -6.667 |
| 26 | `CCCn1ncc(CN2CCC(O)(CO)C2)c1C` (centres undefined) | 11.35 |
| 27 | `NS(=O)(=O)N1CCCN(CCC2CCCC2)CC1` | 2.014 |
| 28 | `CC(=O)COC(=O)CC(NC(N)=O)c1ccc(Cl)cc1` (centres undefined) | -7.133 |
| 29 | `CCOc1ccc(CN(C)CCNC)cc1CO` | -7.096 |
| 30 | `COc1cccc(C)c1NC(=O)N1CCOCC1CO` (centres undefined) | 10.5 |
| 31 | `Nc1ccn(CCCN2CCCC2)n1` | -7.979 |
| 32 | `CCOC(=O)C1CCc2sc(N)c(C#N)c21` (centres undefined) | -5.256 |
| 33 | `COCCSc1ccc(C(C)NS(=O)(=O)N(C)C)cc1` (centres undefined) | 24.16 |
| 34 | `O=C1CN(Cc2ncc(-c3ccc(Cl)cc3)o2)CCN1` | -1.32 |
| 35 | `CN(C)c1ccc(Br)c(S(=O)(=O)NC2CCNC2)c1` (centres undefined) | 19.28 |
| 36 | `CCCN1CCCC(C(=O)Nc2cccc(C)n2)C1` (centres undefined) | -3.275 |
| 37 | `CN1[C@H]2CC[C@@H]1CN(CC(=O)Nc1ccn(C)n1)CC2` | -3.01 |
| 38 | `CN(C)c1nc(N)nc(CN2CCSCC2CCO)n1` (centres undefined) | -2.881 |
| 39 | `Cc1cc(N)n(CC(=O)N2CCOC(CCN)C2)n1` (centres undefined) | 5.469 |
| 40 | `O=c1oc(-c2ccccc2)nn1CN1CCCSCC1` | 5.738 |
| 41 | `COCCc1noc(C2CNC2)n1` | -4.923 |
| 42 | `CCOc1ccc(C(C)=O)cc1N1C(=O)C=CC1=O` | -4.608 |
| 43 | `C=C(C)CSc1nnnn1Cc1ccco1` | 22.98 |
| 44 | `CSCCN1CCN(C(=O)c2ccc(O)c(Cl)c2)CC1` | -6.442 |
| 45 | `Cc1ccnc(NC(=O)N(C)Cc2ccncc2)c1` | 48.4 |
| 46 | `CCS(=O)(=O)NCCNC1(C(=O)OC)CCCC1` | 22.81 |
| 47 | `CN(C)S(=O)(=O)c1cccc(Cn2cccn2)c1` | 1.84 |
| 48 | `CN(C)[C@H]1CN(Cc2cccc(OCCO)c2)C[C@@H]1O` | 12.93 |
| 49 | `Cc1ccnn1-c1ccc(C(=O)N2CCCC2)cc1` | -3.514 |
| 50 | `Cc1ccc(S(=O)(=O)Nc2cccnc2)cc1N(C)C` | 4.06 |
| 51 | `CCOC(=O)C1(C(C)C)CCN(C(=O)c2cn[nH]c2)C1` (centres undefined) | -4.733 |
| 52 | `CCC(CC)NCCO` | -2.575 |
| 53 | `NS(=O)(=O)c1ccc2[nH]c(=O)oc2c1` | -19.32 |
| 54 | `O=C1CCCCN1CC1CCNCC1` | 1.186 |
| 55 | `Cc1cnccc1CN` | -3.354 |
| 56 | `O=C(OCC(=O)N1CCNC1=O)c1ccc(O)cc1` | -9.418 |
| 57 | `Cn1ccc(NC(=O)COc2ccccc2)n1` | 16.38 |
| 58 | `CC(=O)N1CCN(C(C)CC(C)C)CC1` (centres undefined) | 3.818 |
| 59 | `Cn1cc(C2CCCN2)cn1` (centres undefined) | -3.835 |
| 60 | `O=S(=O)(NC1CCCC1)C1CCOCC1` | 42.45 |
| 61 | `CCCS(=O)(=O)NCCN1CCN(C)CC1` | -4.084 |
| 62 | `NC(=O)CC1CCCC1` | 14.91 |
| 63 | `CC(=O)c1cc(CN2CC(N3CCOCC3)C2)cs1` | 1.196 |
| 64 | `CN(c1ccc(F)cc1)S(=O)(=O)N1CCCCC1` | -1.208 |
| 65 | `O=C(CSc1nc[nH]n1)NCCCc1ccccc1` | 0.7527 |
| 66 | `CN1CCN(CC(O)CN(C)c2ncc(Br)cn2)CC1` (centres undefined) | 6.404 |
| 67 | `CN1N=C(C(=O)NCCn2cccc2)CCC1=O` | 4.885 |
| 68 | `COC1CCN(C(=O)c2cnc3ccccn23)CC1` | -4.19 |
| 69 | `NCCc1ccc(CN2CCCC2=O)cc1` | 15.1 |
| 70 | `O=C1COCC(=O)N1CCc1ccc(Cl)cc1` | 22.91 |
| 71 | `Cc1cc(C)cc(OCC(=O)N2CCOCC2)c1` | 11.66 |

For reference, 6 entries once more:

{"compound": "CCOC(=O)C1(C(C)C)CCN(C(=O)c2cn[nH]c2)C1", "stereo": "centres undefined", "effect": -4.733}
{"compound": "OCc1ccncc1NCc1ccccc1", "effect": -1.232}
{"compound": "CN(C)S(=O)(=O)c1cccc(Cn2cccn2)c1", "effect": 1.84}
{"compound": "Nc1cnccc1N1CCCCC1", "effect": 0.1352}
{"compound": "Cn1ccc(NC(=O)COc2ccccc2)n1", "effect": 16.38}
{"compound": "CCC1CCCCCN1C(=O)CCCN", "stereo": "centres undefined", "effect": 7.424}

Measurements from “University of Dundee, Small-Polar-MMV Screening Library” (2021), ChEMBL document CHEMBL3988442.